Results: publication PMC5261001
No constants are given. Whether binding was seen depends on the method and setting. Binding seen in cells or lysates may run through a third protein. Some binding calls cover weakened binding; strength is not graded here. Where a sequence is shown, tags or fusion partners need not be part of it.

Amino acid sequences for entries named in this document (tags omitted).
UniProt P84022: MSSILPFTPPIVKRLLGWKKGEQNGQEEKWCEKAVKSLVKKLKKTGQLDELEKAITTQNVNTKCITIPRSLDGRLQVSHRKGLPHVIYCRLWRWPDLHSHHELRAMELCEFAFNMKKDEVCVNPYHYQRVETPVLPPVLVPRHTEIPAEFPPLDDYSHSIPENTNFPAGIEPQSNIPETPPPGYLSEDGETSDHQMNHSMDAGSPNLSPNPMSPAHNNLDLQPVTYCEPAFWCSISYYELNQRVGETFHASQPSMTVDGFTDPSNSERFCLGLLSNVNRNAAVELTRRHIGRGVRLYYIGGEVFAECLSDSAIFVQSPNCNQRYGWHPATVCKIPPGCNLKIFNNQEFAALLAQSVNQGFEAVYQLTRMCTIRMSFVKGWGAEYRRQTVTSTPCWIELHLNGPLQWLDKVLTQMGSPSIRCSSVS
UniProt Q15796: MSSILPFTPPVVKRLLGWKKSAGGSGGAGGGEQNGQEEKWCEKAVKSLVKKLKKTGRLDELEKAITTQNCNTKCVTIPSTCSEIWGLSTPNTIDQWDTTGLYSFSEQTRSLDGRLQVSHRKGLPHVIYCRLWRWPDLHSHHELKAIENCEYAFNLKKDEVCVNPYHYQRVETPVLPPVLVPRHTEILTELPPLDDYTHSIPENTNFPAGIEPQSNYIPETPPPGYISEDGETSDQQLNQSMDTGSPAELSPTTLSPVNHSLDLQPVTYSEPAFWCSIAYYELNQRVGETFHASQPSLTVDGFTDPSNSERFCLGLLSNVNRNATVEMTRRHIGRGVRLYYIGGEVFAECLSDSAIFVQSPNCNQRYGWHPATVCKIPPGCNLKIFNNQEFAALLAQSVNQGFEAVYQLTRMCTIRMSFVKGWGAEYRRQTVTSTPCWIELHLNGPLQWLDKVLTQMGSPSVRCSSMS

Legend:
Flag-Myc-tagged Bcl-3 = target: T1, Flag-Myc-tagged Bcl-3 (UniProt P20749); test: co-IP; tagged Bcl-3 and tagged Smad3 constructs co-transfected in HEK293T; lysis buffer 20 mM Hepes pH 7.4, 0.5% Triton-X-100, 150 mM NaCl; immunoprecipitated with tag antibodies (Flag, HA or Myc) on protein A-Sepharose overnight at 4 °C; immunoblot
T1 sequence: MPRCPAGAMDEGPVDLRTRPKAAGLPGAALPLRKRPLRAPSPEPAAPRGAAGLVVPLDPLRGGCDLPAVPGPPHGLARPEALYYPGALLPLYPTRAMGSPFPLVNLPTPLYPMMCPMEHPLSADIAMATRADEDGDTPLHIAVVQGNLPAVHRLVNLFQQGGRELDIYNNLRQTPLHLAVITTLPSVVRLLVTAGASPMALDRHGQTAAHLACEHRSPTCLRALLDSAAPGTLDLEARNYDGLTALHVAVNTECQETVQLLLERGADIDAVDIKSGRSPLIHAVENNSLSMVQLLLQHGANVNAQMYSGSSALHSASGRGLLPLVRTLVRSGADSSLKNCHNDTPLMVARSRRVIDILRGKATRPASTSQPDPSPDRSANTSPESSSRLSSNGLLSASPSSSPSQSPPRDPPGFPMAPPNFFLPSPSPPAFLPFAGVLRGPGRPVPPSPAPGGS

[1] = target: T2, hemagglutinin-tagged-Bcl-3 (UniProt P20749); test: co-IP; HA-Bcl-3 expressed in HEK293T, lysed 48 h after transfection; lysates immunoprecipitated with HA antibodies; endogenous partner detected by immunoblot
T2 sequence: T1 sequence

Flag-tagged Smad3 = Flag-tagged Smad3 (UniProt P84022); test: co-IP; tagged Bcl-3 and tagged Smad3 constructs co-transfected in HEK293T; lysis buffer 20 mM Hepes pH 7.4, 0.5% Triton-X-100, 150 mM NaCl; immunoprecipitated with tag antibodies (Flag, HA or Myc) on protein A-Sepharose overnight at 4 °C; immunoblot

“Flag-tagged Smad3 (from UniProt P84022 1-425)” was tested, and the binding (Flag-Myc-tagged Bcl-3) was “binds”.

For “endogenous Smad2 (from UniProt Q15796 1-467)”, the binding [1] was “no binding”.

B1: hemagglutinin-tagged-Bcl-3 (protein, UniProt P20749 1-454)
chain: T1 sequence
For B1, the binding (Flag-tagged Smad3) was “binds”.
